According to patent US20170335004A1:

Molecular target: IGF
Test: ELISA of purified hFab 6.5 on a panel of coated antigens, absorbance 450 nm

binding: no binding (tested: 10 ug/ml)
B1: hFab 6.5 (Fab, V domains shown)
VH: QVQLVQSGGGLVKPGGSLRLSCAASGFTFTSYAMSWVRQAPGKGLEWVSAISGSGGSTYYADSVKGRFTISRDNPKNTLYLQMNSLRAEDTAVYYCARVRANYYYGMDVWGQGTLVTVSS
VL: LTQSPGTLSLSPGERATLSCRASQSVSSSTLAWYQQKPGQTPRLLIYGASTRATGIPARFSGSGSGTDFTLTISRLEPEDFAVYYCQQYGSSRLTFGGGTKVEIKR

Results are given in words; binding and its absence hold for the method and conditions named.
